“Also recorded” adds a separate entry of the source. For at least one compound, name, drawing or mass did not settle the structure.
System: iNOS
Type: cell-based, Mouse

Question: How did the “expression of iNOS in macrophages induced by LPS” value turn out when `C[C@H](O)[C@H](O)[C@H]1CNc2nc(N)[nH]c(=O)c2N1` [tetrahydrobiopterin, reference compound] was run?
Answer: The value was “did not affect expression of iNOS; also recorded: almost no effect”.
